# According to the supplement of paper PMC8728848:
# The other results are listed elsewhere or left out.
# B1: LERP (Drosophila melanogaster), B7Z0Q8 (protein)
# chain: MRCSLQKDCAAPTQENFRQMRFPIVISLLLLLFCSGESVAADAANQLKFSTTECKLKEPIYGSTFDFSGLHSDLAHVVKSMNIGGDQFEFNICGNLSRTCNGESNVAACLKRQGKEYILGRQHELFYNNGNMFLKYKSGAKCDNGTADKPNYQLHVMFSCDYTLDAQPMHVTPYANEVCSFYISYRTPLACLSIPEGLQSNSCRVGDTKSNGTFDLMPLSDSNYHTSNRQGAFFVINVCKPVLYGENSMCPAGSSVCLFDSKATNPKERFINFGNVQTHPVVEKGQLLLRHESPTPCAKNSSANYTSVIYFSCDKFIRNAHPEFAGLGADSCTYQFNFATPLACNDLKPCTAFTSTNELLDLSSLSSKPARTLLKDGKNYTIAVCAHAGAPCQENGGACYEQNSTTISLGNSNSQLRFNQTGSLYLLYEDGAECSTATGMRRWSTKIEFVCANNATKDNGASTAGGSDSLKIIEDSNCQLLIQYQTPLACREPIRCKATTYVDHTNDGLGSSGDELIDLTPLISATDNYEARVELPASMEHLVPKTTKFFLNVCRPLVPKYQLGCAGGSAACMAKVTAAGAPEEERSMGFPLVSLTQRNRTFAELAYLKGDPCPTDNTSELSTHILFNCNMRAGRGQPVLRSVEDCAYRFEWETNVFCPPHECTFSADTCDLVHDELGRRFNFKSAPFTKDGKIEIDYNATKMSVNICGAHRKAMTDYSQALVNIFFTHESPNCGREGTMNVQIRLICSDQTESSSTISSDQQCNLLYVQRTPSICEFLSLGATQQNFESNGSTSSSTSSSSTSTTTSTTTQASPAGKPTKAATSTTTTTVGPDPAATPIGPTASVGTILGAILSVTFCVTCLGLLAFSPARRQRIRRLFRRSNSAVRYSRVQSNEEANLLLEPNGEFTESDDDMLL
# Assays:
# Experiment in all cases: glycan array binding signal (z-score within array); higher = stronger binding
# Settings in all cases: glycan notation: IUPAC condensed, linker removed
# [1] = molecular target: Neu5Ac(a2-3)Gal(b1-3)GlcNAc(b1-3)Gal(b1-3)GlcNAc
# How it was run: (§1)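 Glycan array data came from 3228 arrays in the Consortium for Functional Glycomics database, and only arrays with an available protein sequence were kept. Glycan names were put into IUPAC-condensed notation, and columns mapping to the same glycan were averaged. The binding signal is a within-array Z-score, averaged across arrays of one protein sequence run at different concentrations or buffers and across linkers. A negative Z-score can be read as non-binding.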
# [2] = molecular target: Neu5Ac(a2-3)Gal(b1-3)GlcNAc(b1-3)Gal(b1-4)GlcNAc
# How it was run: as §1
# [3] = molecular target: Neu5Ac(a2-3)Gal(b1-3)GlcNAc(b1-3)GalNAc
# How it was run: as §1
# [4] = molecular target: Neu5Ac(a2-3)Gal(b1-3)GlcNAc6S
# How it was run: as §1
# [5] = molecular target: Neu5Ac(a2-3)Gal(b1-3)[Fuc(a1-4)]GlcNAc
# How it was run: as §1
# [6] = molecular target: Neu5Ac(a2-3)Gal(b1-3)[Fuc(a1-4)]GlcNAc(b1-3)Gal(b1-3)[Fuc(a1-4)]GlcNAc
# How it was run: as §1
# [7] = molecular target: Neu5Ac(a2-3)Gal(b1-3)[Fuc(a1-4)]GlcNAc(b1-3)Gal(b1-4)[Fuc(a1-3)]GlcNAc
# How it was run: as §1
# [8] = molecular target: Neu5Ac(a2-3)Gal(b1-3)[Neu5Ac(a2-3)Gal(b1-4)]GlcNAc
# How it was run: as §1
# [9] = molecular target: Neu5Ac(a2-3)Gal(b1-3)[Neu5Ac(a2-6)]GalNAc
# How it was run: as §1
# Neu5Ac(a2-3)Gal(b1-4)Glc = molecular target: Neu5Ac(a2-3)Gal(b1-4)Glc
# How it was run: as §1
# [10] = molecular target: Neu5Ac(a2-3)Gal(b1-4)GlcNAc
# How it was run: as §1
# [11] = molecular target: Neu5Ac(a2-3)Gal(b1-4)GlcNAc(b1-2)Man(a1-3)[GlcNAc(b1-2)Man(b1-4)GlcNAc(b1-2)Man(a1-6)]Man(b1-4)GlcNAc(b1-4)GlcNAc
# How it was run: as §1
# [12] = molecular target: Neu5Ac(a2-3)Gal(b1-4)GlcNAc(b1-2)Man(a1-3)[Neu5Ac(a2-6)Gal(b1-4)GlcNAc(b1-2)Man(a1-6)]Man(b1-4)GlcNAc(b1-4)GlcNAc
# How it was run: as §1
# [13] = molecular target: Neu5Ac(a2-3)Gal(b1-4)GlcNAc(b1-3)Gal(b1-3)GlcNAc
# How it was run: as §1
# [14] = molecular target: Neu5Ac(a2-3)Gal(b1-4)GlcNAc(b1-3)Gal(b1-4)GlcNAc
# How it was run: as §1
# [15] = molecular target: Neu5Ac(a2-3)Gal(b1-4)GlcNAc(b1-3)Gal(b1-4)GlcNAc(b1-3)Gal(b1-4)GlcNAc
# How it was run: as §1
# [16] = molecular target: Neu5Ac(a2-3)Gal(b1-4)GlcNAc(b1-3)Gal(b1-4)[Fuc(a1-3)]GlcNAc
# How it was run: as §1
# [17] = molecular target: Neu5Ac(a2-3)Gal(b1-4)GlcNAc(b1-3)GalNAc
# How it was run: as §1
# [18] = molecular target: Neu5Ac(a2-3)Gal(b1-4)GlcNAc(b1-6)[Gal(b1-3)]GalNAc
# How it was run: as §1
# [19] = molecular target: Neu5Ac(a2-3)Gal(b1-4)GlcNAc(b1-6)[Neu5Ac(a2-3)Gal(b1-3)]GalNAc
# How it was run: as §1
# [20] = molecular target: Neu5Ac(a2-3)Gal(b1-4)GlcNAc6S
# How it was run: as §1
# [21] = molecular target: Neu5Ac(a2-3)Gal(b1-4)[Fuc(a1-3)]GlcNAc
# How it was run: as §1
# [22] = molecular target: Neu5Ac(a2-3)Gal(b1-4)[Fuc(a1-3)]GlcNAc(b1-3)Gal
# How it was run: as §1
# [23] = molecular target: Neu5Ac(a2-3)Gal(b1-4)[Fuc(a1-3)]GlcNAc(b1-3)Gal(b1-4)GlcNAc
# How it was run: as §1
# [24] = molecular target: Neu5Ac(a2-3)Gal(b1-4)[Fuc(a1-3)]GlcNAc(b1-3)Gal(b1-4)[Fuc(a1-3)]GlcNAc(b1-3)Gal(b1-4)[Fuc(a1-3)]GlcNAc
# How it was run: as §1
# [25] = molecular target: Neu5Ac(a2-3)Gal(b1-4)[Fuc(a1-3)]GlcNAc(b1-3)GalNAc
# How it was run: as §1
# [26] = molecular target: Neu5Ac(a2-3)Gal(b1-4)[Fuc(a1-3)]GlcNAc(b1-6)[Gal(b1-3)]GalNAc
# How it was run: as §1
# [27] = molecular target: Neu5Ac(a2-3)Gal(b1-4)[Fuc(a1-3)]GlcNAc(b1-6)[Neu5Ac(a2-3)Gal(b1-3)]GalNAc
# How it was run: as §1
# [28] = molecular target: Neu5Ac(a2-3)Gal(b1-4)[Fuc(a1-3)]GlcNAc6S
# How it was run: as §1
# [29] = molecular target: Neu5Ac(a2-3)Gal6S(b1-4)GlcNAc
# How it was run: as §1
binder,measurement,setting,value
B1,glycan array binding signal (z-score),[1],-0.319
same,glycan array binding signal (z-score),[2],-0.135
same,glycan array binding signal (z-score),[3],-1.17
same,glycan array binding signal (z-score),[4],-0.16
same,glycan array binding signal (z-score),[5],-0.364
same,glycan array binding signal (z-score),[6],0.907
same,glycan array binding signal (z-score),[7],0.187
same,glycan array binding signal (z-score),[8],-0.204
same,glycan array binding signal (z-score),[9],0.859
same,glycan array binding signal (z-score),Neu5Ac(a2-3)Gal(b1-4)Glc,-0.727
same,glycan array binding signal (z-score),[10],0.617
same,glycan array binding signal (z-score),[11],0.008
same,glycan array binding signal (z-score),[12],-0.274
same,glycan array binding signal (z-score),[13],-0.699
same,glycan array binding signal (z-score),[14],0.53
same,glycan array binding signal (z-score),[15],-1.11
same,glycan array binding signal (z-score),[16],-0.338
same,glycan array binding signal (z-score),[17],0.38
same,glycan array binding signal (z-score),[18],0.326
same,glycan array binding signal (z-score),[19],-0.813
same,glycan array binding signal (z-score),[20],0.734
same,glycan array binding signal (z-score),[21],-1.2
same,glycan array binding signal (z-score),[22],0.892
same,glycan array binding signal (z-score),[23],0.149
same,glycan array binding signal (z-score),[24],-0.598
same,glycan array binding signal (z-score),[25],0.301
same,glycan array binding signal (z-score),[26],2.71
same,glycan array binding signal (z-score),[27],0.222
same,glycan array binding signal (z-score),[28],-0.72
same,glycan array binding signal (z-score),[29],-1.42

# A stretch of the results above, for reference:
binder,measurement,setting,value
B1,glycan array binding signal (z-score),[1],-0.319
same,glycan array binding signal (z-score),[2],-0.135
